From PubChem BioAssay (Tox21)
Values joined by “and” are separate entries in the source; they are usually repeats but may differ in a detail not shown here. Equal entries are not always repeated. The source calls these results inconclusive, neither active nor inactive. Unless noted, the call rests on the fitted dose curve; in most records, active means well fitted curve in the direction sought with a large enough effect in the repeat runs; inconclusive means weak or mixed curves; inactive means no such curve, though single readings can be large; an effect the other way counts as inactive or inconclusive.

By UniProt entry, the sequences of proteins in these tests, tags left out.
UniProt P04150, whole entry: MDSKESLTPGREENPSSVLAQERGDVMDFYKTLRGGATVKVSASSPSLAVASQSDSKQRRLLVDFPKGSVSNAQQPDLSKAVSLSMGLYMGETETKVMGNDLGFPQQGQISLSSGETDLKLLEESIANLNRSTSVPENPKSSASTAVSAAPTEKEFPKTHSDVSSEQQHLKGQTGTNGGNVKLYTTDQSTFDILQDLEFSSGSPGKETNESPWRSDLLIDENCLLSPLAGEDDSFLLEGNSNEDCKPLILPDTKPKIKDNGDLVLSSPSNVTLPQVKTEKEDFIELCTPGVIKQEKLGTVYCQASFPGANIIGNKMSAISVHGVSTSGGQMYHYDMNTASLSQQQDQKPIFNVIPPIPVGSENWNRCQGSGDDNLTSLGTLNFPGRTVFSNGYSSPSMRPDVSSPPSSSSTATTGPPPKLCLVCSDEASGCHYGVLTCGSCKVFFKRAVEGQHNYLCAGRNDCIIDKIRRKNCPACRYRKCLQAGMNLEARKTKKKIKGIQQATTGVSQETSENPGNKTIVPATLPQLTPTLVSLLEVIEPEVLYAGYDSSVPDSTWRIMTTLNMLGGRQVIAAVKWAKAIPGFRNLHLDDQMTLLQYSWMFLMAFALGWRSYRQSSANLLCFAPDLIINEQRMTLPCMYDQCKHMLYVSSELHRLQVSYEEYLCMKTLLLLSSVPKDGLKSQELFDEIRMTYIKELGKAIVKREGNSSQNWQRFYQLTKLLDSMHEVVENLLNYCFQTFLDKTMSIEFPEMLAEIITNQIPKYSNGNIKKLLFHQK
UniProt P03372, whole entry: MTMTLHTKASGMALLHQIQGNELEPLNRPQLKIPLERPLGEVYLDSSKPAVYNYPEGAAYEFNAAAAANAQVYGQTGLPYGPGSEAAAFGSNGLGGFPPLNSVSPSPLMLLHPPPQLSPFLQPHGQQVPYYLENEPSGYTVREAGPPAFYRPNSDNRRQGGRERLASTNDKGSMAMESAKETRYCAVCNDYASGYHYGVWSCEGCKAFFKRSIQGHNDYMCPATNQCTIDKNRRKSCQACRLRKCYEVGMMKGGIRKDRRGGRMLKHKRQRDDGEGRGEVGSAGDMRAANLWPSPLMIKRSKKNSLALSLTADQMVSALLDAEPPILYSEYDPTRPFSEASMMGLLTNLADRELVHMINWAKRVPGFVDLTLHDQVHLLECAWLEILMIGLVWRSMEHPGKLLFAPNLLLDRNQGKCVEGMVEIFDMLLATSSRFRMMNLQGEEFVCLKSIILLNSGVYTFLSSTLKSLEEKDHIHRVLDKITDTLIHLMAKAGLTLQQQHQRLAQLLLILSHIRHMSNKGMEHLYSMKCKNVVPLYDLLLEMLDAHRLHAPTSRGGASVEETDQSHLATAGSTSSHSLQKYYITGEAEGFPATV
UniProt Q03181, whole entry: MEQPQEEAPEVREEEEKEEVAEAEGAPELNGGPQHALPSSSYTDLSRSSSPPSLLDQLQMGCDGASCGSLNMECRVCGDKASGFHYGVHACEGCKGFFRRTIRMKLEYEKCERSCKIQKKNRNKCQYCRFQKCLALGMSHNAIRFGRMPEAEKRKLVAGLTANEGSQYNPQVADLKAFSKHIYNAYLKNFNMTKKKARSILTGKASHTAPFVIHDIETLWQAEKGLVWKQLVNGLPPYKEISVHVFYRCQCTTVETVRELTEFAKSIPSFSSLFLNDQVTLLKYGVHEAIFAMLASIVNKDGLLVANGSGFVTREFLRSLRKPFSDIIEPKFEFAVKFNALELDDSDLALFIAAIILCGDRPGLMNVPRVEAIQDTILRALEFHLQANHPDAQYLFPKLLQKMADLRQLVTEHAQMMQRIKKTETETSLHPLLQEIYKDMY
UniProt Q96RI1, whole entry: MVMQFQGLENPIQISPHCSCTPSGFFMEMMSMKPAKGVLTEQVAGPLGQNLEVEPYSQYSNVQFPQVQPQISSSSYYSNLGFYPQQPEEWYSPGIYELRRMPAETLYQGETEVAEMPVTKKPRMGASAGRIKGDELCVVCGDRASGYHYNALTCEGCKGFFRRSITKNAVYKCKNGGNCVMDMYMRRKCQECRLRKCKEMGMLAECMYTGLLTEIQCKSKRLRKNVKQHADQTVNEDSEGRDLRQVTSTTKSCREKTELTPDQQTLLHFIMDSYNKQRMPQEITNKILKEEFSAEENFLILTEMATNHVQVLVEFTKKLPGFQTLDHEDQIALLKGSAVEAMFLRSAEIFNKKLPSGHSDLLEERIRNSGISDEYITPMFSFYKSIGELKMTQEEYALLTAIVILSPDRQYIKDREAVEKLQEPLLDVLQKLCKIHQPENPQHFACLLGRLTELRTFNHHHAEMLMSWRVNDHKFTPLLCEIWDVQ
UniProt P11473, whole entry: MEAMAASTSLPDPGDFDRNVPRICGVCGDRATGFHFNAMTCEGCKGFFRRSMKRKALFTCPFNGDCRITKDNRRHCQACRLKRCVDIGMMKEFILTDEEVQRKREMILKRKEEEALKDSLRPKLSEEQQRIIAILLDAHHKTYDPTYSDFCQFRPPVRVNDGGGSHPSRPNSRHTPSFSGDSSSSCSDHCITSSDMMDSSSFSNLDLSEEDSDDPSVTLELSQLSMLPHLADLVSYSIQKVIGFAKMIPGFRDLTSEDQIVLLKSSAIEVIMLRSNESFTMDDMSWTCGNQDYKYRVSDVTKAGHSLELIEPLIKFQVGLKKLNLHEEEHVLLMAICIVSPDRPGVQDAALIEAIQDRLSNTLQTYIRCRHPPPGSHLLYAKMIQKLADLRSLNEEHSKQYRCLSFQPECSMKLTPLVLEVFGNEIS

How the values were obtained:
[1] = qHTS assay for small molecule agonists of the p53 signaling pathway (AID 651631; calls by dose curve; further: potency means the concentration at half of the fitted maximal effect; nearly all actives have a fitted effect of over 15% in size); settings: HCT-116 p53RE-bla reporter, beta-lactamase FRET ratio, 16 h
In short: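 Testing took place in human colorectal HCT-116 cells with stable p53RE-driven beta-lactamase. After 16 h of compound exposure at 37 °C, a FRET substrate was added and fluorescence recorded 2 h later.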

[2] = qHTS assay for small molecule disruptors of the mitochondrial membrane potential (AID 720635); settings: HepG2 mitochondrial membrane potential, Mito-MPS dye ratio; ratio activity, negative = MMP loss: at 83.2 µM (top of the series) unless noted; further: on the % scale 0 is the no-effect control and ±100 the full control effect
In short: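 Mitochondrial membrane potential tracked with Mito-MPS dye, red aggregates (ex 540/em 590 nm) against green monomers (ex 490/em 535 nm). Compound treatment 1 hr at 37C, dye 30 min in HepG2.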

[3] = target: Glucocorticoid receptor (Homo sapiens) (UniProt P04150); assay: qHTS assay to identify small molecule antagonists of the glucocorticoid receptor (GR) signaling pathway (AID 720692; active means well fitted inhibition curve with a large enough effect in the signal ratio in the repeat runs, not every such curve was filed as active; inconclusive means weak or mixed curves, or effect the other way; inactive means no such curve, though single readings can be large or run the other way; the % refers to the signal ratio; further: potency means the concentration at half of the fitted maximal effect); settings: GR-bla HeLa, beta-lactamase FRET ratio, dexamethasone-stimulated, 18 h
[4] = qHTS assay for identifying genotoxic compounds that show differential cytotoxicity against isogenic chicken DT40 cell lines with known DNA damage response pathways - wild type cell line (AID 743012); settings: DT40 wild type chicken cells viability, CellTiter-Glo, 40 h; further: potency means the concentration at half of the fitted maximal effect; nearly all actives have a fitted effect of over 60% in size
In short: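 First, wild type DT40 cells were plated at 300 per well and equilibrated about 0.5 h at 37 C/5% CO2. Next, compounds in DMSO were added and exposure lasted 40 h. Finally, CellTiter-Glo was added for 30 min at room temperature and luminescence recorded.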

[5] = qHTS assay to identify small molecule antagonists of the androgen receptor (AR) signaling pathway - cell viability counter screen (AID 743033; further: potency means the concentration at half of the fitted maximal effect; nearly all actives have a fitted effect of over 45% in size); settings: AR-bla HEK293 viability, CellTiter-Glo luminescence, 16 h
[6] = qHTS assay to identify small molecule antagonists of the thyroid receptor (TR) signaling pathway - cell viability counter screen (AID 743064); settings: GH3.TRE-Luc viability, CellTiter-Fluor, 24 h; further: potency means the concentration at half of the fitted maximal effect; nearly all actives have a fitted effect of over 50% in size
In short: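 Viability of T3-stimulated (1 nM final) GH3.TRE-Luc cells is measured by CellTiter-Fluor fluorescence after 23.5 h compound exposure at 37 °C plus 30 min reagent incubation.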

[7] = qHTS assay to identify small molecule antagonists of the thyroid receptor (TR) signaling pathway (AID 743065); settings: GH3.TRE-Luc, T3-stimulated luciferase inhibition, 23.5 h; further: potency means the concentration at half of the fitted maximal effect; nearly all actives have a fitted effect of over 55% in size
In short: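 Antagonism measured as loss of luciferase signal in GH3 cells stably carrying a TRE-luciferase reporter, co-treated with compound and T3 (1 nM final) for 23.5 h at 37 C. Viability was read in the same well by CellTiter-Fluor.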

[8] = qHTS assay to identify small molecule antagonists of the estrogen receptor alpha (ER-alpha) signaling pathway - cell viability counter screen (AID 743074; calls by dose curve;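 further: HEK293 cells carrying ER-alpha-UAS-bla reporter stimulated with 17beta-estradiol; potency means the concentration at half of the fitted maximal effect; nearly all actives have a fitted effect of over 45% in size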); settings: ERalpha-bla HEK293 viability, CellTiter-Glo luminescence, 18 h
[9] = target: Estrogen receptor (Homo sapiens) (UniProt P03372); assay: qHTS assay to identify small molecule agonists of the estrogen receptor alpha (ER-alpha) signaling pathway using the BG1 cell line (AID 743079); settings: BG1Luc4E2 cells, ERE-luciferase agonist, 22 h; further: potency means the concentration at half of the fitted maximal effect; nearly all actives have a fitted effect of over 20% in size
[10] = qHTS assay to identify small molecule antagonists of the estrogen receptor alpha (ER-alpha) signaling pathway using the BG1 cell line - cell viability counter screen (AID 743081); settings: BG1Luc4E2 viability, CellTiter-Fluor, 22 h;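 further: compound given together with 17beta-estradiol as the ER stimulus; potency means the concentration at half of the fitted maximal effect; nearly all actives have a fitted effect of over 45% in size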
[11] = qHTS assay to identify aromatase inhibitors - cell viability counter screen (AID 743084); settings: MCF-7 aro ERE viability, CellTiter-Fluor, 24 h;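 further: cells stimulated with testosterone during compound exposure; potency means the concentration at half of the fitted maximal effect; nearly all actives have a fitted effect of over 55% in size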
[12] = qHTS assay to identify small molecule antagonists of the peroxisome proliferator-activated receptor gamma (PPARg) signaling pathway - cell viability counter screen (AID 743194); settings: PPARg-bla HEK293H viability, CellTiter-Glo luminescence, 17 h, co-treated with 50 nM rosiglitazone; activity change, negative = cytotoxicity: at 81.1 µM (top of the series); further: potency means the concentration at half of the fitted maximal effect; nearly all actives have a fitted effect of over 55% in size
In short: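 Viability was measured as CellTiter-Glo luminescence in GeneBLAzer PPARg UAS-bla HEK293H cells. These cells had been exposed 17 h at 37 C to compounds together with rosiglitazone at 50 nM final, with the beta-lactamase readout taken in the same wells.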

[13] = qHTS assay for small molecule agonists of the antioxidant response element (ARE) signaling pathway - cell viability counter screen (AID 743203; calls by dose curve; further: potency means the concentration at half of the fitted maximal effect; nearly all actives have a fitted effect of over 55% in size); settings: ARE-bla HepG2 viability, CellTiter-Glo luminescence, 16 h; viability change, negative = cytotoxic: at 73.3 µM (top of the series)
In short: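 Following 16 hrs of compound treatment at 37C, HepG2 cells with an ARE-controlled beta-lactamase gene were lysed with CellTiter-Glo. Luminescence was read after 30 min at room temperature.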

[14] = qHTS assay for small molecule activators of the heat shock response signaling pathway (AID 743210; active means well fitted activation curve with a large enough effect in the signal ratio in the repeat runs, with a control signal flat, not every such curve was filed as active; inconclusive means weak or mixed curves; the % refers to the signal ratio; further: potency means the concentration at half of the fitted maximal effect); settings: HeLa HSE-bla reporter, beta-lactamase ratio, 5 h
In short: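 HeLa HSE-bla cells, overnight plating; cpd in DMSO 5 h, 37 C; LiveBLAzer B/G FRET substrate 2.5 h RT; fluorescence intensity read.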

[15] = qHTS assay to identify small molecule antagonists of the peroxisome proliferator-activated receptor delta (PPARd) signaling pathway - cell viability counter screen (AID 743213); settings: PPARd-bla HEK293H viability, CellTiter-Glo luminescence, 17 h; viability change, negative = cytotoxic: at 62 µM (top of the series); further: potency means the concentration at half of the fitted maximal effect; nearly all actives have a fitted effect of over 50% in size
In short: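 PPARd-bla HEK293H cells (3000/well) got compound plus 300 nM L165041 agonist for 17 h at 37 C. Viability in the same wells came from CellTiter-Glo luminescence after 30 min at room temperature.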

[16] = target: Peroxisome proliferator-activated receptor delta (Homo sapiens) (UniProt Q03181); assay: qHTS assay to identify small molecule antagonists of the peroxisome proliferator-activated receptor delta (PPARd) signaling pathway (AID 743215; active means well fitted inhibition curve with a large enough effect in the signal ratio in the repeat runs, not every such curve was filed as active; inconclusive means weak or mixed curves, or effect the other way; inactive means no such curve, though single readings can be large or run the other way; the % refers to the signal ratio;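 further: cells stimulated with agonist L165041 at 300 nM final during compound exposure; potency means the concentration at half of the fitted maximal effect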); settings: HEK293H PPARd-UAS-bla, beta-lactamase FRET ratio, antagonist, 17 h
In short: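 HEK293H UAS-bla, PPARd; agonist L165041 300 nM final with cpd in DMSO; 37 C 17 h; FRET substrate, RT 2 h; fluorescence intensity.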

[17] = target: Bile acid receptor (Homo sapiens) (UniProt Q96RI1); assay: qHTS assay to identify small molecule antagonists of the farnesoid-X-receptor (FXR) signaling pathway (AID 743217; active means well fitted inhibition curve with a large enough effect in the signal ratio in the repeat runs, not every such curve was filed as active; inconclusive means weak or mixed curves, or effect the other way; inactive means no such curve, though single readings can be large or run the other way; the % refers to the signal ratio; further: potency means the concentration at half of the fitted maximal effect); settings: HEK293T FXR-UAS-bla, beta-lactamase ratio, CDCA-stimulated, 16 h
In short: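 GeneBLAzer FXR-UAS-bla HEK 293T, CDCA-stimulated (50 uM final). Compound treatment 16 h, 37 °C. Detection: beta-lactamase cleavage of B/G FRET substrate, fluorescence.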

[18] = qHTS assay to identify small molecule agonists of the farnesoid-X-receptor (FXR) signaling pathway - cell viability counter screen (AID 743218); settings: FXR-bla HEK293T viability, CellTiter-Glo luminescence, 16 h; further: potency means the concentration at half of the fitted maximal effect; nearly all actives have a fitted effect of over 45% in size
In short: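 Parallel cytotoxicity test: compound-treated (16 h, 37 C) HEK 293T FXR-bla reporter cells were lysed with CellTiter-Glo and luminescence recorded.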

[19] = target: Bile acid receptor (Homo sapiens) (UniProt Q96RI1); assay: qHTS assay to identify small molecule agonists of the farnesoid-X-receptor (FXR) signaling pathway (AID 743220; active means well fitted activation curve with a large enough effect in the signal ratio in the repeat runs, not every such curve was filed as active; inconclusive means weak or mixed curves, or effect the other way; the % refers to the signal ratio; further: potency means the concentration at half of the fitted maximal effect); settings: HEK293T FXR-UAS-bla, beta-lactamase FRET ratio, 16 h; activation: at 62.6 µM (top of the series)
[20] = target: Vitamin D3 receptor (Homo sapiens) (UniProt P11473); assay: qHTS assay to identify small molecule agonists of the vitamin D receptor (VDR) signaling pathway (AID 743222; calls by dose curve; further: potency means the concentration at half of the fitted maximal effect); settings: HEK293T VDR-UAS-bla, beta-lactamase FRET ratio, 16 h; activation: at 63.5 µM (top of the series)
In short: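 In VDR-bla cells, compound-induced beta-lactamase expression is quantified by FRET substrate fluorescence. Treatment lasts 16 h at 37C; substrate develops 2 h at room temperature.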

[21] = target: Vitamin D3 receptor (Homo sapiens) (UniProt P11473); assay: qHTS assay to identify small molecule antagonists of the vitamin D receptor (VDR) signaling pathway (AID 743223; active means well fitted inhibition curve with a large enough effect in the signal ratio in the repeat runs, not every such curve was filed as active; inconclusive means weak or mixed curves, or effect the other way; inactive means no such curve, though single readings can be large or run the other way; the % refers to the signal ratio; further: on the % scale 0 is the no-effect control and ±100 the full control effect); settings: VDR-UAS-bla HEK293T, beta-lactamase FRET ratio, 16 h; activity change, negative = inhibition: at 78.8 µM (top of the series) unless noted
In short: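 Quantitative HTS in VDR-bla reporter cells stimulated with 1alpha,25-dihydroxyvitamin D3, 3 nM final. Compound exposure 16 h, 37C, 5% CO2. Read-out: beta-lactamase FRET substrate fluorescence, 2 h RT.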

[22] = qHTS assay to identify small molecule antagonists of the vitamin D receptor (VDR) signaling pathway - cell viability counter screen (AID 743225); settings: VDR-bla HEK293T viability, CellTiter-Glo luminescence, 16 h; further: potency means the concentration at half of the fitted maximal effect; nearly all actives have a fitted effect of over 50% in size
In short: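 Same-well multiplex: following 16 h treatment of HEK 293T cells carrying a UAS-driven beta-lactamase reporter with compound and agonist (3 nM final), and a 2 h FRET substrate step, CellTiter-Glo was added and luminescence read after 30 min.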

[23] = qHTS assay to identify small molecule agonists of the NFkB signaling pathway (AID 1159509; active means well fitted curve in the direction sought with a large enough effect in the signal ratio in the repeat runs, not every such curve was filed as active; inconclusive means weak or mixed curves, or a change in a side signal; inactive means no such curve, though single readings can be large or run the other way; the % refers to the signal ratio; further: potency means the concentration at half of the fitted maximal effect); settings: NFkB-bla ME-180 cells, beta-lactamase FRET ratio, 5 h
In short: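 ME-180 NFkB-bla, 2,000 cells/well, overnight plating; cpd pinned in DMSO, 5 h 37 C; B/G FRET substrate 1.5 h RT; ex 405, em 460/530 nm.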

[24] = qHTS assay to identify small molecule agonists of the endoplasmic reticulum stress response signaling pathway (AID 1159516; active means well fitted activation curve with a large enough effect in the signal ratio in the repeat runs, not every such curve was filed as active; inconclusive means weak or mixed curves, or effect the other way; the % refers to the signal ratio; further: potency means the concentration at half of the fitted maximal effect); settings: ESRE-bla HeLa, ER stress beta-lactamase reporter, 5 h; activation: at 61 µM (top of the series)
In short: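 An ESRE-bla HeLa cell assay: compounds were pin-transferred from DMSO onto overnight-plated cells and left 5 hr at 37 C. Substrate was then loaded for 2 hr at room temperature before reading fluorescence at 460 nm and 530 nm.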

O=[N+]([O-])c1cccc([N+](=O)[O-])c1
inconclusive: Potency [1] 119 nM and 243 nM | ratio activity, negative = MMP loss [2] -13.4% [at 95.3 µM] | Potency [3] 25.6 µM | Potency [4] 63.7 µM | Potency [5] 51 µM | Potency [6] 2.84 µM | Potency [7] 28.4 µM | Potency [8] 22.8 µM | Potency [9] 43.4 µM | Potency [10] 0.0025 µM | Potency [11] 9 µM | Potency [12] 11.4 µM | Potency [13] 28.4 µM | Potency [14] 66.6 µM | Potency [15] 22.8 µM | Potency [16] 71.5 µM | Potency [17] 31.9 µM | Potency [18] 0.0072 µM | Potency [19] 0.0081 µM | Potency [20] 4.55 µM | activity change, negative = inhibition [21] 5.04% | Potency [22] 12.8 µM | Potency [23] 0.361 µM | Potency [24] 0.642 µM
